Test results published in paper PMC4883773.
These are yes or no findings as the source states them, for the method shown. Binding seen in cells or lysates may run through a third protein. Some binding calls cover weakened binding; strength is not graded here.

The chains behind the UniProt entries cited, without tags or fusion partners. Residues count along the entry.
UniProt Q05086: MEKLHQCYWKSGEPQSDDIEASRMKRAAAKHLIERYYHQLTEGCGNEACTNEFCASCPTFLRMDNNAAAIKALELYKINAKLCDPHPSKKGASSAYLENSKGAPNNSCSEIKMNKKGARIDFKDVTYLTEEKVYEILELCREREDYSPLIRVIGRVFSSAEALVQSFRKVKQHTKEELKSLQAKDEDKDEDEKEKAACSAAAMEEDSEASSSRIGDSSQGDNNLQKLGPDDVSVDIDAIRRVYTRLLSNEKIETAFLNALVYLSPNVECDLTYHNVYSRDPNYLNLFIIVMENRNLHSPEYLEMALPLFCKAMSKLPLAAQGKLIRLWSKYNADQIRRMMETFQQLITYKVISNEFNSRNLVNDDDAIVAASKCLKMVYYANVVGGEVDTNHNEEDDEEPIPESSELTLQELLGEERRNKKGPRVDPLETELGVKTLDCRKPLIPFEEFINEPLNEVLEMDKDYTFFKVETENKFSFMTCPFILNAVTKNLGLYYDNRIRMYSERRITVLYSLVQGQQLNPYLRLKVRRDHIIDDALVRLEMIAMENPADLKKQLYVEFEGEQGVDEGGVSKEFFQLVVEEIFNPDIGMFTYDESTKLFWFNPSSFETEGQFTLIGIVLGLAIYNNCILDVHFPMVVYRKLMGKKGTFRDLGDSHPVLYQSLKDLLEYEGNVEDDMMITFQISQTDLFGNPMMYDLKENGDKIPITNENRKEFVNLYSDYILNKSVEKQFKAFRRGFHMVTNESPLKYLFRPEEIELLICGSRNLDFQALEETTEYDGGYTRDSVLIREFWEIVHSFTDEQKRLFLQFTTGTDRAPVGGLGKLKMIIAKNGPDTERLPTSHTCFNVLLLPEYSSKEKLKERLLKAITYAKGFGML
UniProt P36894, residues 24-532: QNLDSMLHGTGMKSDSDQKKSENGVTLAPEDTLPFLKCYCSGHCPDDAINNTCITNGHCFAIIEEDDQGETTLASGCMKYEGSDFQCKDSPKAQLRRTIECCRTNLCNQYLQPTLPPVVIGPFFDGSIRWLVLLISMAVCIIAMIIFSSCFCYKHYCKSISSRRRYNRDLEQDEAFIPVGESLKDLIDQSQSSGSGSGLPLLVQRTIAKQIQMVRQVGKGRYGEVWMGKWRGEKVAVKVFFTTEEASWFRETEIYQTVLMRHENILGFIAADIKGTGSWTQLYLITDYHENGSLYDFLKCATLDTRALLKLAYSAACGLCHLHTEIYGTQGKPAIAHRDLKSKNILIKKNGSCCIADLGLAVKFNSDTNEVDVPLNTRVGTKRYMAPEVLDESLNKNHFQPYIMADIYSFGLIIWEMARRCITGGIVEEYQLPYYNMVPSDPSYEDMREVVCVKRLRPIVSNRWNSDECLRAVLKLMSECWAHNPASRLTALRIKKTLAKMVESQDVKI

Target: HA-UBE3A (human, HEK293 cells) (human) (UniProt Q05086)
Test: co-IP; lysates of HEK293 cells co-transfected with myc-ALK3 and HA-UBE3A; immunoprecipitated with anti-HA (control anti-IgG), blotted for HA and myc

myc-ALK3 (HEK293 cells) (from UniProt P36894 24-532) (receptor)
binding: binds
